Tested on: MDA-MB-435 breast xenografts
Procedure: Female NCr nude mice were injected intravenously (q7dx3, beginning day 15) via the lateral tail vein. […] Paclitaxel (⋄) was prepared in […]/12.5% ethanol/75% saline and injected iv (q1dx5) at a dose of 15 mg/kg/dose. Drug-to-lipid ratio was 0.3/1 (w/w). Data points represent median tumor volume (n=6).
The anti-tumor activity of multiple (q7d3) dose schedules of liposomal vinorelbine was evaluated in several human xenograft tumor models. The goal of this series of studies was to identify the benefits of encapsulation by evaluating a series of doses and determining the therapeutic index in several xenograft models. Models were selected based on the following criteria: (1) activity in the single dose studies, (2) a comprehensive literature review of vinca alkaloid efficacy, (3) a desire to include at least 2-3 models that represent the clinical use of vinorelbine, and (4) a desire to include models with a range of sensitivity to vinorelbine so that improvements resulting from the use of the liposome formulation might be identified. Based on these criteria, MX-1 and MDA-MB-435 breast models, the NCl-H460 NSCLC model and the HT-29 and DLD-1 colon models were chosen.
Therapeutic index (TI) is a parameter that quantifies the “safety factor” of a particular therapy. TI is a ratio of a toxicity parameter and a biological activity parameter. […]

SMILES: CCC1=C[C@@H]2CN(C1)Cc1c([nH]c3ccccc13)[C@@](C(=O)OC)(c1cc3c(cc1OC)N(C)[C@H]1[C@@](O)(C(=O)OC)[C@H](OC(C)=O)[C@]4(CC)C=CCN5CC[C@]31[C@@H]54)C2 [VRL, 5′-noranhydrovinblastine]
- TIFree (therapeutic index, TI = MTD/MED) (MDA-MB-435 (breast), i.v. q7d x 3, MED at % T/C = 40): 10.0
- TI (MDA-MB-435 breast model, q7dx3): ~10

— patent publication US20040071768A1, “Compositions and methods for treating cancer” (Inex Pharmaceuticals Corporation, priority 1999, published 2004)
